Test results as given in paper PMC8396726.

Amino acid sequences for entries named in this document (tags omitted).
UniProt Q8IJW2: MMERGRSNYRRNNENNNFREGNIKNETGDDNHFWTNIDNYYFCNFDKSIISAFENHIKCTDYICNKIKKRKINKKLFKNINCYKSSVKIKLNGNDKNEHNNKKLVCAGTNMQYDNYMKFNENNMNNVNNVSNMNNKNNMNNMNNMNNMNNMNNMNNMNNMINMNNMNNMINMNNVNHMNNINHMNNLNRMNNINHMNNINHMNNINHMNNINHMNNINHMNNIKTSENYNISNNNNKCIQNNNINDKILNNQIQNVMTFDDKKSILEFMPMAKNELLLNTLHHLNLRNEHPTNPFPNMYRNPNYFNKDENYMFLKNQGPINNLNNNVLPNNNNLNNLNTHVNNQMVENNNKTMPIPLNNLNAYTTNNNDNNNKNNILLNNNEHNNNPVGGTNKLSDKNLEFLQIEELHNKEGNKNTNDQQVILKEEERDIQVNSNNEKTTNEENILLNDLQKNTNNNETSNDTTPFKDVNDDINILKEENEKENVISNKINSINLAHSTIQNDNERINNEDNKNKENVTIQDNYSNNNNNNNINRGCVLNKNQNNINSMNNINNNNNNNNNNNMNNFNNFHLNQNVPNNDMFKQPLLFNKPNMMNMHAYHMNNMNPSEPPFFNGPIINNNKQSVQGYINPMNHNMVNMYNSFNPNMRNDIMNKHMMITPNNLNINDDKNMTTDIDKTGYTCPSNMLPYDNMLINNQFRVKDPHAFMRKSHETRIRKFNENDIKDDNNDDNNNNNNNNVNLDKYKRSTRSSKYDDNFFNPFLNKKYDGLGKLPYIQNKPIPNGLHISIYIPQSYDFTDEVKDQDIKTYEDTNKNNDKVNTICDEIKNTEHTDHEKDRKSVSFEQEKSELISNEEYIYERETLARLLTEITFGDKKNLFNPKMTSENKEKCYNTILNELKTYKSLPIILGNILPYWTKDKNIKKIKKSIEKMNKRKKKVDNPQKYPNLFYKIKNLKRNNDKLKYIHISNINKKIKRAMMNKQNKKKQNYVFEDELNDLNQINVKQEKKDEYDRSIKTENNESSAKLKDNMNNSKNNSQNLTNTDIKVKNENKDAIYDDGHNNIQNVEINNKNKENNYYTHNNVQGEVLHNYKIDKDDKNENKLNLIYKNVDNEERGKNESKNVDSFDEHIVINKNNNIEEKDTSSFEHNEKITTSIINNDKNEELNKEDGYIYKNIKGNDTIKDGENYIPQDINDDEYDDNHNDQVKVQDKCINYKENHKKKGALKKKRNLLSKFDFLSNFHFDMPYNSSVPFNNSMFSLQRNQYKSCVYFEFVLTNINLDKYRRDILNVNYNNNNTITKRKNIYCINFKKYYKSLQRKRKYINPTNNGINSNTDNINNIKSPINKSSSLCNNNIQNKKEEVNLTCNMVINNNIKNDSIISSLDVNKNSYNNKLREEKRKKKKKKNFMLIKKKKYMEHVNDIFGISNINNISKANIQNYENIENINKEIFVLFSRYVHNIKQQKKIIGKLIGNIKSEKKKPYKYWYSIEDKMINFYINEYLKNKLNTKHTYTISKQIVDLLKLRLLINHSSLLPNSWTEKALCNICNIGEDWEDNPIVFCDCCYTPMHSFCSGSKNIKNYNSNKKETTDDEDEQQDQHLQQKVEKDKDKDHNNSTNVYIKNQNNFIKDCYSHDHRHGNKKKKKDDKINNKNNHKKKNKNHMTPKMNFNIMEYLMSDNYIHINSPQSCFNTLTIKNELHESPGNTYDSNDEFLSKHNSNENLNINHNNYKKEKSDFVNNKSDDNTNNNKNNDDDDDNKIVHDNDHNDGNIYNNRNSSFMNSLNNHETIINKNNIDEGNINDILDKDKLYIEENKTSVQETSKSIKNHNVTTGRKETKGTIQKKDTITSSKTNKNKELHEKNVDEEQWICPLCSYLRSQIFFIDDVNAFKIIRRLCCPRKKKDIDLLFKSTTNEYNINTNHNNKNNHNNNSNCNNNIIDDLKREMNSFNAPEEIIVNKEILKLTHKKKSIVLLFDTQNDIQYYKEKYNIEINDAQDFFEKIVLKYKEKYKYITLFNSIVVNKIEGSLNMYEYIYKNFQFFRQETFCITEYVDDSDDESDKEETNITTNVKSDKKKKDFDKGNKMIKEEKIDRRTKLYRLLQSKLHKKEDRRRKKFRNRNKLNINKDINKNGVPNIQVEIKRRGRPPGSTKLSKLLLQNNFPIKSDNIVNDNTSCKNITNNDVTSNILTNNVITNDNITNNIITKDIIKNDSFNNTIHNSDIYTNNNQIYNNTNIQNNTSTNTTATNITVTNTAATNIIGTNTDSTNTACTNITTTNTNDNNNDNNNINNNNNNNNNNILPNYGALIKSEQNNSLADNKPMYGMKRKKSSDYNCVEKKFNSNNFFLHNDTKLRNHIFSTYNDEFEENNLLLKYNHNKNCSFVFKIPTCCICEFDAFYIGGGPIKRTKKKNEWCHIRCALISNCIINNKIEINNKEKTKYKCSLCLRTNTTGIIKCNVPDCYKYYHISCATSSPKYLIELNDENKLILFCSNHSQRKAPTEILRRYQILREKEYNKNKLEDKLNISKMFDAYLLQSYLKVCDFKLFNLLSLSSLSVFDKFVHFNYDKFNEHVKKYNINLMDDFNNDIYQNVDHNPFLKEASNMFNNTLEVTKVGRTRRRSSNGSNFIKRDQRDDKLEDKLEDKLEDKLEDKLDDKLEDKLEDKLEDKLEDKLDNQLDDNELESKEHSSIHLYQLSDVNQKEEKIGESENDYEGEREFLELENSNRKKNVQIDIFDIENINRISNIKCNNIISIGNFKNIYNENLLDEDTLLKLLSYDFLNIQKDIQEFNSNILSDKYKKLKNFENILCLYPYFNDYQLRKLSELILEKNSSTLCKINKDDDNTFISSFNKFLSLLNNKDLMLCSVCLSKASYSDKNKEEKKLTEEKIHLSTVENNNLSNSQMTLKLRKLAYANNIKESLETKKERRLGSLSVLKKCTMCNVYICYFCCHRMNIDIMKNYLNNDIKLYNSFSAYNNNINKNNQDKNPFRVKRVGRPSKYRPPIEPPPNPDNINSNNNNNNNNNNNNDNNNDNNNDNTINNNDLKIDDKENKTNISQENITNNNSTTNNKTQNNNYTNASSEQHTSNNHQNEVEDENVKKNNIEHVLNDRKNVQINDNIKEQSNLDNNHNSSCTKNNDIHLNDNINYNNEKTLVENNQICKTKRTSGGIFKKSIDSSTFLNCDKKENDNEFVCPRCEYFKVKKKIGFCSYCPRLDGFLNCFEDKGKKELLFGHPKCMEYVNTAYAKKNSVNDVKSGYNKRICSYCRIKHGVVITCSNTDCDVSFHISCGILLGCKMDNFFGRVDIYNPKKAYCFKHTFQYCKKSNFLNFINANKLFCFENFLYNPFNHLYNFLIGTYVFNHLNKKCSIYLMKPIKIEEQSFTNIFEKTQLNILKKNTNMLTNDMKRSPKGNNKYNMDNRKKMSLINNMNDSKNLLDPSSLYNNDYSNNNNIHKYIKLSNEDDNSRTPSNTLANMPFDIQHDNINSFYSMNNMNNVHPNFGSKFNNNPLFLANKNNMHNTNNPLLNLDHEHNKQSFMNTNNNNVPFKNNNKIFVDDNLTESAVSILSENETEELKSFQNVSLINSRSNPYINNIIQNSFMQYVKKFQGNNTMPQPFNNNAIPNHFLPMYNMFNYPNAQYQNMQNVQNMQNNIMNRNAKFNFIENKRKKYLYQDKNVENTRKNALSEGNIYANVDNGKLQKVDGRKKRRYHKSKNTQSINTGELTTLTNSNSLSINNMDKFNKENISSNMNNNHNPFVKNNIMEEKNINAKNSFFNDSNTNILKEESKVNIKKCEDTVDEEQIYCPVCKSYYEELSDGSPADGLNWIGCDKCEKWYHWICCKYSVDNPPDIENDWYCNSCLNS
UniProt Q8IM62: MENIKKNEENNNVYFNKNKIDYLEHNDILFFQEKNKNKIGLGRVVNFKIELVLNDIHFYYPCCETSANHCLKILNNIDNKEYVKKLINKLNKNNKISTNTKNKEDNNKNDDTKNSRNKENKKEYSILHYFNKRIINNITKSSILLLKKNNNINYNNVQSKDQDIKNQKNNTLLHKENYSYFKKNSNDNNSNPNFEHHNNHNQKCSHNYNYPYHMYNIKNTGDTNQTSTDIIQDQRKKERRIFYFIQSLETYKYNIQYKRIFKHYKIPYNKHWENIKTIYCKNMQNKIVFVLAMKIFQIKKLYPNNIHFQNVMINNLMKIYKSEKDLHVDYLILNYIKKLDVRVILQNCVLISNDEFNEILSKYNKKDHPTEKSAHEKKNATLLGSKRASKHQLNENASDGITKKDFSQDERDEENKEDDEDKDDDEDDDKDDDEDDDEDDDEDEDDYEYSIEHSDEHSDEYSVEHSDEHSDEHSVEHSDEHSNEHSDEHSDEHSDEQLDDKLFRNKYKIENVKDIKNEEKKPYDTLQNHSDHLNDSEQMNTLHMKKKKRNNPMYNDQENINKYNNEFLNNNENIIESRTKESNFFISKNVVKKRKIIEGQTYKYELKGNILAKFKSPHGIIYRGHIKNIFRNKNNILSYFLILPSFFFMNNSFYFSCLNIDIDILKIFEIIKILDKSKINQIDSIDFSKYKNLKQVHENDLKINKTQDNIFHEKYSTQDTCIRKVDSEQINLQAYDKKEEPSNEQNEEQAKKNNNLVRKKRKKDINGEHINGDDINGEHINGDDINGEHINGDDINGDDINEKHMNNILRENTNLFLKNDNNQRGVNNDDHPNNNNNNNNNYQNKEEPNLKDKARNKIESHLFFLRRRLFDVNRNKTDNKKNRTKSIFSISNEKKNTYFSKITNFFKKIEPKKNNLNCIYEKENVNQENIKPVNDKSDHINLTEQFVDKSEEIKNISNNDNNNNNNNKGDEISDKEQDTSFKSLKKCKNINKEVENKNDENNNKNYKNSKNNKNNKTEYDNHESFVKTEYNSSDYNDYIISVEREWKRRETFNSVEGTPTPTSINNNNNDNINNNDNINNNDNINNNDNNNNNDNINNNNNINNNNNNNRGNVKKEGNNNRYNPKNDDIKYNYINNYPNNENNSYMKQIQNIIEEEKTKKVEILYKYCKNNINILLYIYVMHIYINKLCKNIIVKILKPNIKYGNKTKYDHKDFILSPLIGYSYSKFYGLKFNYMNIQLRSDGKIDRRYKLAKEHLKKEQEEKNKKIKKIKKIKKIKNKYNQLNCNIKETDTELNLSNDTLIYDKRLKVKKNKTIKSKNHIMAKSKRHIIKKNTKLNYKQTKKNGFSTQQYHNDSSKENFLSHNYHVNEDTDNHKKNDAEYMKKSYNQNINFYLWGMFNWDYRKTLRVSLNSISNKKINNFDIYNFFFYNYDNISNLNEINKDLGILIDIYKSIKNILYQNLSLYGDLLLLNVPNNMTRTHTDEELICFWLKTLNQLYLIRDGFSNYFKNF

T1: PF3D7_1019700::GFP (P. falciparum 3D7) (UniProt Q8IJK5)
T1 sequence: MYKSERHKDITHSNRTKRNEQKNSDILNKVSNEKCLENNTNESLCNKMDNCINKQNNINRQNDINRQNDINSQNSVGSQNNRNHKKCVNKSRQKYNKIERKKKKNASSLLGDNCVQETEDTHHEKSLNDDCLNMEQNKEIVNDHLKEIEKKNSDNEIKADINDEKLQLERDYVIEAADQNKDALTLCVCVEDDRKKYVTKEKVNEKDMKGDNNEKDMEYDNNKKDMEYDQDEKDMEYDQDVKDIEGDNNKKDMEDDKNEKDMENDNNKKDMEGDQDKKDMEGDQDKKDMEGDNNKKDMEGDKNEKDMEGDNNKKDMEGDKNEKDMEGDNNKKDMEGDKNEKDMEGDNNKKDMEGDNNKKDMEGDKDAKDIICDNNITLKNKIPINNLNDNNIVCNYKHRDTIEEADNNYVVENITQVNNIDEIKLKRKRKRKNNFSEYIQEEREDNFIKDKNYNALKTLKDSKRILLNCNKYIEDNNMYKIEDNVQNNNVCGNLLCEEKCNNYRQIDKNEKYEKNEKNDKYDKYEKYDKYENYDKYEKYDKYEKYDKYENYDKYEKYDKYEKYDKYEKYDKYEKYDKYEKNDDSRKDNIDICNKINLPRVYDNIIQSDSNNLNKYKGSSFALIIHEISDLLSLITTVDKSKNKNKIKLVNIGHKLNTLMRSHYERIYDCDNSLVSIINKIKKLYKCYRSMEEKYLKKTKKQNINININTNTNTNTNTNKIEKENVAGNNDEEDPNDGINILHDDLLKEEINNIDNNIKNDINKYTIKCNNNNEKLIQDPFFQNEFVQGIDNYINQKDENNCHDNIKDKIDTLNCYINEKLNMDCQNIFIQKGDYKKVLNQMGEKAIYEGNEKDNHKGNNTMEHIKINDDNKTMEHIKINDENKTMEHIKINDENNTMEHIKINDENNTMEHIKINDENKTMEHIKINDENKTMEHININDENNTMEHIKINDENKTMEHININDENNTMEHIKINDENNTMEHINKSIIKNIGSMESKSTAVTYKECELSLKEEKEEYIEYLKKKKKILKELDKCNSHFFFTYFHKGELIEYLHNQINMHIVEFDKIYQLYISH

B1: heterochromatin protein 1 (HP1) (protein, UniProt Q8I5K4 1-266)
chain: MTGSDEEFEIGDILEIKKKKNGFIYLVKWKGYSDDENTWEPESNLIHLTTFKKKMESLKTNFLSKANETNGDGKILKNHILAPTQEDDSIKSKGRSSLAPRRKMSRKSLTNKLENKKNLSLSDNSLKKSDEEDNESVKHENHVNDGNLLNVEDVYSVRIKNKKLEFLASLKNESPQWVEETNIRRTGHLNIKVNDFKRYVRRKKSSRGNRIVIKNLHNVGDELYISVIHNINNKEIHSLYPSKVIEYIYPQELLNFLLSRLRYRTA
B2: PfNAPS (protein, UniProt Q8I2W3 1-269)
chain: MKRDRSENSVENTDPKHTKIENDDPLMPFMQDFEDIQKDIEQLDIKCAHEQMNIQKQYDEKKKPLFEKRDEIIQKIPGFWANTLRKHPALSDIVPEDIDILNHLVKLDLKDNMDNNGSYKITFIFGEKAKEFMEPLTLVKHVTFDNNQEKVVECTRIKWKEGKNPIAAVTHNRSDLDNEIPKWSIFEWFTTDELQDKPDVGELIRREIWHNPLSYYLGLEEFDEFDDDFDEEFDDDDDDDDDDDDDDDDDDKDDDLDGDDDGNNDDNDD
B3: PF3D7_1019700 (protein, UniProt Q8IJK5 1-1074)
chain: T1 sequence
B4: Pf14-3-3I (protein, UniProt C0H4V6 1-262)
chain: MATSEELKQLRCDCTYRSKLAEQAERYDEMADAMRTLVEQCVNNDKDELTVEERNLLSVAYKNAVGARRASWRIISSVEQKEMSKANVHNKNVAATYRKKVEEELNNICQDILNLLTKKLIPNTSESESKVFYYKMKGDYYRYISEFSCDEGKKEASNCAQEAYQKATDIAENELPSTHPIRLGLALNYSVFFYEILNQPHQACEMAKRAFDDAITEFDNVSEDSYKDSTLIMQLLRDNLTLWTSDLQGDQTEEKSKDEGLE
B5: AP2-EXP (protein, UniProt Q8IKH2 1-813)
chain: MEDNNMNNEQKFNPNMLGMENNVSQEPAAETVVVEPKKKVGRPRGASSNNKVIKKEEKVSTSSSGYPGVSWNKRMCAWLAFFYDGASRRSRTFHPKHFNMDKEKARLAAVEFMKTVENNGRKKSGKGKGGRSKSKQLNDEHFNALHNSDLGNSMNGMNAHNNLHMQLMSMNPAFYMQSLNRNFNMSANERNNMFNSLNNHSGLSGPLKNMQDHNELYMQNQVFNNMHLLNNSNSSLNNNRNNNSNNNNNSSNSHNNSSNNLHYLNELIFNSNLFHGNNMGYHEGNVNTGVSDLLNLDDNVGLHNKDVENLMNVLFRQNYNMNMNISNIDKHYLQGSNILMNGPQGNNNNMNNSNSNNNNNSGSNNNSNNNNNNNNTNNNNNSGSNNNSNNNNNMNNNKNNNNNNNNSNSGNSNSSQNQHMYLSSHNNDIFENNNNNSNSGNNDSNNNNQSNISNFYDYNFDLYRGNVSPNIMDMVHRMNNNMKDGKNLDSLNDDIGNDLNFRLHENSAWINQLRQSHNNLCNNINNNHCDLCHTTSPDHSLKGQMELSKRKKTTSNINNRKNDLLEDSVNSFDLNMPCSCSSHLRNQKNHFCVYYNQSNSSSQNENYKNYLNWNPNSNNNLINNSIDKNDTPLDNSNGNSGRNLGDSNLLCISQNNNGTSSQSTNPKHLSQTIDMNQKQSSHTSQYSNNPNLQDIQNQFSYQNQPNINMDMHSQLNLIKQNCNYSPKCINNNKKKSTTGTSKDSTRKLLSSHSLSMPLEQQHQSSKKNNLSSSFIENNLCTKLNSIINFEWINNDLKMNLNGNKSNSYDNSES

What follows are molecules tested against T1, PF3D7_1019700::GFP (P. falciparum 3D7) (assay: affinity purification with mass spectrometry; single-step IP with anti-GFP (GFP-trap) beads from nuclear extracts of PF3D7_1019700::GFP parasites; LC-MS/MS; two replicates; SAINT probability >94%, 1% FDR; WT 3D7 as control).

Row | Molecule | binding
1 | B1 | binds

The molecules below were run against PfGCN5::GFP (P. falciparum) (UniProt Q8IB67) (assay: affinity purification with mass spectrometry; single-step IP with GFP-trap beads from PfGCN5::GFP parasites at the ring stage; LC-MS/MS; two replicates; SAINT probability >94%, 1% FDR).

Row | Molecule | binding
2 | PfPHD1 (from UniProt Q8IJW2 1-3853) | binds
3 | PF3D7_1402800 (from UniProt Q8IM62 1-1511) | binds
4 | PfAP2-LT (from UniProt Q8IAM1 1-2577) | binds
5 | PF3D7_1107800 (from UniProt Q8IIS4 1-1828) | binds
6 | PfADA2 (from UniProt Q8IJP9) | binds
7 | PfPHD2 (from UniProt Q8ILC9 1-5757) | binds
8 | PF3D7_1364400 (from UniProt A0A5K1K8L4 1-3265) | no binding (only at the ring stage)
9 | B2 | binds
10 | B3 | binds
11 | B4 | binds
12 | B5 | binds

Each molecule was assayed against PfPHD1::Myc (P. falciparum 3D7) (UniProt Q8IJW2) (assay: affinity purification with mass spectrometry; single-step pulldown with Myc-trap beads from trophozoite nuclear extracts of PfPHD1::Myc parasites; LC-MS/MS; SAINT probability >94%, 1% FDR; WT 3D7 as control).

Row | Molecule | binding
13 | AP2-I (from UniProt Q8IJW6 1-1597) | binds
14 | PF3D7_1402800 (from UniProt Q8IM62 1-1511) | binds
15 | PfAP2-LT (from UniProt Q8IAM1 1-2577) | binds
16 | PF3D7_1239200 (from UniProt Q8I531 1-2577) | binds
17 | PfADA2 (from UniProt Q8IJP9) | binds
18 | PfPHD2 (from UniProt Q8ILC9 1-5757) | binds
19 | PF3D7_1364400 (from UniProt A0A5K1K8L4 1-3265) | binds
20 | PfGCN5 (from UniProt Q8IB67 1-1465) (enzyme) | binds
21 | B2 | binds
22 | B3 | binds
23 | B1 | binds
24 | B4 | binds

What follows are molecules tested against PfGCN5::PTP (P. falciparum 3D7) (UniProt Q8IB67) (assay: affinity purification with mass spectrometry; tandem affinity purification (IgG agarose, release with TEV protease, anti-protein C beads, elution with EGTA/EDTA) from nuclear extracts of 10^9 synchronized trophozoites of the PfGCN5::PTP line; 150 mM KCl, 20 mM Tris-HCl pH 7.7, 3 mM MgCl2, 0.1% Tween 20, 4°C; LC-MS/MS; SAINT probability >94%, FDR <1%; three replicates; WT 3D7 as control).

Row | Molecule | binding
25 | PfPHD1 (from UniProt Q8IJW2 1-3853) | binds
26 | PF3D7_1402800 (from UniProt Q8IM62 1-1511) | binds
27 | PfAP2-LT (from UniProt Q8IAM1 1-2577) | binds
28 | PfADA2 (from UniProt Q8IJP9) | binds
29 | PfPHD2 (from UniProt Q8ILC9 1-5757) | binds
30 | PF3D7_1364400 (from UniProt A0A5K1K8L4 1-3265) | binds
31 | B2 | binds
32 | B3 | binds

What follows are molecules tested against PfGCN5::GFP (P. falciparum) (UniProt Q8IB67) (assay: affinity purification with mass spectrometry; IP with GFP-Trap from trophozoite nuclear extracts of the PfGCN5::GFP, GCN5-ΔBrD::GFP and PHD1-ΔPHD::GFP lines; LC-MS/MS; SAINT probability >94%, FDR <1%).

Row | Molecule | binding
33 | PfPHD1 (from UniProt Q8IJW2 1-3853) | binds
34 | PF3D7_1402800 (from UniProt Q8IM62 1-1511) | binds
35 | PfAP2-LT (from UniProt Q8IAM1 1-2577) | binds
36 | PfADA2 (from UniProt Q8IJP9) | binds
37 | PfPHD2 (from UniProt Q8ILC9 1-5757) | binds
38 | PF3D7_1364400 (from UniProt A0A5K1K8L4 1-3265) | binds
39 | B2 | binds
40 | B3 | binds

The molecules below were run against PfGCN5-ΔBrD::GFP (P. falciparum 3D7) in the same assay as above.

Row | Molecule | binding
41 | B2 | binds

Each molecule was assayed against PfPHD1-ΔPHD::GFP (P. falciparum 3D7) in the same assay as above.

Row | Molecule | binding
42 | B2 | no binding

Target: T1, PF3D7_1019700::GFP (P. falciparum 3D7)
Assay: affinity purification with mass spectrometry; single-step IP with anti-GFP (GFP-trap) beads from nuclear extracts of PF3D7_1019700::GFP parasites; LC-MS/MS; two replicates; SAINT probability >94%, 1% FDR; WT 3D7 as control
Remark: another data set of the same source

Row | Molecule | binding
43 | PfPHD1 (from UniProt Q8IJW2 1-3853) | binds
44 | PfPHD2 (from UniProt Q8ILC9 1-5757) | binds

These are yes or no findings as the source states them, for the method shown. In cells and extracts the contact can be indirect. Here binding means that the protein was enriched with, or labelled near, the bait; the list need not be complete. For some assays here: A no says only that the protein was not detected with the bait. For some assays here: Sequences can lack the tags named with a protein.
